Laboratory results reported in doi:10.1101/2020.07.08.194092.
These are yes or no findings as the source states them, for the method shown. In cells and extracts the contact can be indirect. Some binding calls cover weakened binding; strength is not graded here.

The chains behind the UniProt entries cited, without tags or fusion partners. Where a name states a change or a piece, a line headed by the entry shows the natural chain unless it says otherwise. A line that says so, or that is headed by a name, gives the form on record, which may keep a tag or linker.
lysine methyltransferase G9a (human (endogenous in RH30 and RH41)) (Q96KQ7, form named): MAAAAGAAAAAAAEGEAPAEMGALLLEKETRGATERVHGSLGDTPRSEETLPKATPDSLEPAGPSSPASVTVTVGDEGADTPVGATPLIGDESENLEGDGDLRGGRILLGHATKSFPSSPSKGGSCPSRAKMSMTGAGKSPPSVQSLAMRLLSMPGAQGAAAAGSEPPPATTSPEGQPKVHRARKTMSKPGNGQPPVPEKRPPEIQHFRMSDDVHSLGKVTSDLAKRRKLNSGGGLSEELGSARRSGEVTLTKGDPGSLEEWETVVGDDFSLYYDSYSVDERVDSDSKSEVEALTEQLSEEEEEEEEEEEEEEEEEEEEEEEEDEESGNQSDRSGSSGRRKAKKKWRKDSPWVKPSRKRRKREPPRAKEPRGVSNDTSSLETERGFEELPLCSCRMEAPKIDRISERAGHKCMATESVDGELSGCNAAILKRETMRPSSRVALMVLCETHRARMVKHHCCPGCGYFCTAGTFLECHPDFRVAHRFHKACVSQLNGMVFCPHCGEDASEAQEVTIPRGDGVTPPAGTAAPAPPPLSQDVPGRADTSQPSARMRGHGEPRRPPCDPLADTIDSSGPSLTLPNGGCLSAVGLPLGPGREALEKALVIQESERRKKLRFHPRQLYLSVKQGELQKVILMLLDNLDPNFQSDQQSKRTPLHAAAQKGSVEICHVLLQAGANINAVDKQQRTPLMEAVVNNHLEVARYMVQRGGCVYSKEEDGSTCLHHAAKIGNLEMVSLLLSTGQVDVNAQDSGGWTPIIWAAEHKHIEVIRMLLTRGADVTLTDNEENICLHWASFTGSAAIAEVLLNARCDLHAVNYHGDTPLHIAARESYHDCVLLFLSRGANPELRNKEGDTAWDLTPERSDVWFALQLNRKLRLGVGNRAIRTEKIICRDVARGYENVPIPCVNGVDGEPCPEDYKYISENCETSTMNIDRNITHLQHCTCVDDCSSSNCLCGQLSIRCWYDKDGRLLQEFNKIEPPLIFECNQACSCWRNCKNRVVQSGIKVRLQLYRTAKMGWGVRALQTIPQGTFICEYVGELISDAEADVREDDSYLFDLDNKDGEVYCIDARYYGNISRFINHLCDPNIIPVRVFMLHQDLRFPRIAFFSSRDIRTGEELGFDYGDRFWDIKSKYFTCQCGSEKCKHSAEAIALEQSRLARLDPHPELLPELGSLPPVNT

Molecular target: lysine methyltransferase G9a (human (endogenous in RH30 and RH41)) (UniProt Q96KQ7)
Assay: co-IP

binding: binds
Substance: DEAD box RNA helicase 5 (DDX5) (from UniProt P17844-1 1-614)
